Values of other authors in patent US10071083B2 (Ovid Therapeutics Inc., priority 2017, dated 2018).
At least one structure is not confirmed: it was looked up by name or label, or the drawing left a doubt.

Tested on: tinnitus
Conditions: published studies reviewed by Jufas and Wood (2015); cited from earlier work

O=C1Nc2ccc(Cl)cc2C(c2ccccc2)=NC1O (stereo not shown) [oxazepam]
efficacy in treating tinnitus: effective
